Some of the results follow.
How the values were obtained:
Experiment in all cases: log2 fold change, soluble protein after heating vs DMSO (PISA); higher = thermal stabilisation; K562 cells, 10 uM, 30 min; active = over 0.2 and 3.5 SD of the protein, either way, in both replicates (recomputed)
nilotinib = compound: Cc1cn(-c2cc(NC(=O)c3ccc(C)c(Nc4nccc(-c5cccnc5)n4)c3)cc(C(F)(F)F)c2)cn1 [nilotinib]
How it was run: (§1)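 Soluble protein was quantified by TMTpro 16plex LC-MS/MS after channel sums were equalised. It was obtained as the supernatant after 21,000xg for 90 min from pooled aliquots of K562 cells (2×10^6 cells/mL, 10 μM compound, 30 min) heated for 3 min across 48°C-58°C and extracted in PBS with 0.5% NP-40 at 4°C. Thermal stability values are relative to control samples and come from duplicates. They are given as log2 fold changes.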

Sequences of proteins named here, by UniProt entry; tags and fusion partners are left off. A change or cut given only in a name is not applied to a line headed by its entry.
UniProt Q9BZM5, whole entry, looked up: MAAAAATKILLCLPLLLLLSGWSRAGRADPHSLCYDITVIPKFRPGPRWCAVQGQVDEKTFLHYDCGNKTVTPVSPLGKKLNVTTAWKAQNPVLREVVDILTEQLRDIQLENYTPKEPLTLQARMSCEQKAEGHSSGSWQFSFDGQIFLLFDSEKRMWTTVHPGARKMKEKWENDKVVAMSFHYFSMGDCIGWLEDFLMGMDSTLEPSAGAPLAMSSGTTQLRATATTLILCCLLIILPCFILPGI
UniProt O14957: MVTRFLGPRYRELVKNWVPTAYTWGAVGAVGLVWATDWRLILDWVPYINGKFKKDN
UniProt P09936: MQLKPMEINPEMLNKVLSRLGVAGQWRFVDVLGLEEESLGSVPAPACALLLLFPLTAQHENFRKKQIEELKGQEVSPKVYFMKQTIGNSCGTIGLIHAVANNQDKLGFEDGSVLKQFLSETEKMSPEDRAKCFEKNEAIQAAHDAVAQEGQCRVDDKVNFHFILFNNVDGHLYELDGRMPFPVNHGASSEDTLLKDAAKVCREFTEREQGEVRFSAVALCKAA
UniProt A6NNY8: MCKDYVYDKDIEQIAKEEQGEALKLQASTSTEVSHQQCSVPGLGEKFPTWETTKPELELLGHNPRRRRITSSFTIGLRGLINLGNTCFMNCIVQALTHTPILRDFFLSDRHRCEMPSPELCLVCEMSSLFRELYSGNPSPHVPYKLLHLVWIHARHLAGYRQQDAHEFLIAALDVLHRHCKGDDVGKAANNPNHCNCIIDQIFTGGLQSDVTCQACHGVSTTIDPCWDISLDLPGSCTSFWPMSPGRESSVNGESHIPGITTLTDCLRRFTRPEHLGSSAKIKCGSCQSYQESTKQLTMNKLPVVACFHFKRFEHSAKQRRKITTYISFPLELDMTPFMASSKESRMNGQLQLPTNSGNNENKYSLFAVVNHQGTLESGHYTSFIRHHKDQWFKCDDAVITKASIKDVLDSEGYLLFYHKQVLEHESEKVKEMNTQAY
UniProt Q96JH7: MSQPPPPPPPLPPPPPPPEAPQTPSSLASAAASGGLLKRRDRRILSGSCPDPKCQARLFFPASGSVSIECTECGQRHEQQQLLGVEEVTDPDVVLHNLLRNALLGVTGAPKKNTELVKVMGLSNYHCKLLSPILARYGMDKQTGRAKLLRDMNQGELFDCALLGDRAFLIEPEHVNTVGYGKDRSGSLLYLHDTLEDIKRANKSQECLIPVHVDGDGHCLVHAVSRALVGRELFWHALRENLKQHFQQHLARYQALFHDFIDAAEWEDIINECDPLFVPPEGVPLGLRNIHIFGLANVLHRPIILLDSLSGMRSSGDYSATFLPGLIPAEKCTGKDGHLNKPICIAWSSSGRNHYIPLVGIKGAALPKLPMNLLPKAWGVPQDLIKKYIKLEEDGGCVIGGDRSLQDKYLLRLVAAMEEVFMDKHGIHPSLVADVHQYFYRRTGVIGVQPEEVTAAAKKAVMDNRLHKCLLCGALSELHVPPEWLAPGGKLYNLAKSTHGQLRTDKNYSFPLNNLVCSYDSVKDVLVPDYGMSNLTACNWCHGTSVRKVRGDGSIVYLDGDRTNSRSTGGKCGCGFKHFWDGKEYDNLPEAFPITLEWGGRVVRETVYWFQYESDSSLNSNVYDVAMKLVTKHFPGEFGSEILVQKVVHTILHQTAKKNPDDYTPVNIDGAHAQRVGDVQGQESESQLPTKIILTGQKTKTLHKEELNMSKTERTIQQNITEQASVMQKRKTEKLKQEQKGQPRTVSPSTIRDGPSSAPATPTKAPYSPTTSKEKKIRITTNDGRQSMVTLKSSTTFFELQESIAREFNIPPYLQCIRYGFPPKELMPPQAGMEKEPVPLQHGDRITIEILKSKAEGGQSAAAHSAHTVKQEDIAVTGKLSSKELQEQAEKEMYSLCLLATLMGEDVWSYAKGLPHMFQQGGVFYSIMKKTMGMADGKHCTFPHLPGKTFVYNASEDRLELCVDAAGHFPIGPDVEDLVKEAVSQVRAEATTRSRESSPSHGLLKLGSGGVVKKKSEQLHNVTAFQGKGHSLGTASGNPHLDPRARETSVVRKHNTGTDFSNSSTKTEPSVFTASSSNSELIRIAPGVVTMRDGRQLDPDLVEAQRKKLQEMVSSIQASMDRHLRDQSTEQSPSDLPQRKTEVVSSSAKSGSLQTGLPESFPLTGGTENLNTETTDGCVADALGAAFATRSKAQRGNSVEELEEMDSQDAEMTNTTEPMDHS
UniProt Q92738: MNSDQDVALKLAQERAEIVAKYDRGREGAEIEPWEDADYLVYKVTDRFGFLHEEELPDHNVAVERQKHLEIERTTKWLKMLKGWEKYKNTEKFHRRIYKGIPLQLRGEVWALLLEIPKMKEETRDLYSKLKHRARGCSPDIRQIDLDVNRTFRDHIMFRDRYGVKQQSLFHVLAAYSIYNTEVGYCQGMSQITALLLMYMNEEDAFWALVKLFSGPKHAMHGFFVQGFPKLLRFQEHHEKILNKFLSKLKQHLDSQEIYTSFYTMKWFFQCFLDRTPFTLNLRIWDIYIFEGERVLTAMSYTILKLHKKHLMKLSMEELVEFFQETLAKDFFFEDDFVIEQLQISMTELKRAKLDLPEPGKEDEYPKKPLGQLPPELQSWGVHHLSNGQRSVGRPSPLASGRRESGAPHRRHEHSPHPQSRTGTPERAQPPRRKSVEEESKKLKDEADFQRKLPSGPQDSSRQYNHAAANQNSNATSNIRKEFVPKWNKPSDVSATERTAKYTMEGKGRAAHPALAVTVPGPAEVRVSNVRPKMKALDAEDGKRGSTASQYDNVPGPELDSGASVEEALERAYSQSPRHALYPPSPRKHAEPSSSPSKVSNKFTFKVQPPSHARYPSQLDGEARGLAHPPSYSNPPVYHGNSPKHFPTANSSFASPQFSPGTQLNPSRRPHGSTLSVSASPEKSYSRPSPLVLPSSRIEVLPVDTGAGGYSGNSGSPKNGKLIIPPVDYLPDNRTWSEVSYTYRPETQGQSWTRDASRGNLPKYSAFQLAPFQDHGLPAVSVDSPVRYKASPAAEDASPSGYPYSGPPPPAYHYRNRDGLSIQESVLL
UniProt Q9UPT9: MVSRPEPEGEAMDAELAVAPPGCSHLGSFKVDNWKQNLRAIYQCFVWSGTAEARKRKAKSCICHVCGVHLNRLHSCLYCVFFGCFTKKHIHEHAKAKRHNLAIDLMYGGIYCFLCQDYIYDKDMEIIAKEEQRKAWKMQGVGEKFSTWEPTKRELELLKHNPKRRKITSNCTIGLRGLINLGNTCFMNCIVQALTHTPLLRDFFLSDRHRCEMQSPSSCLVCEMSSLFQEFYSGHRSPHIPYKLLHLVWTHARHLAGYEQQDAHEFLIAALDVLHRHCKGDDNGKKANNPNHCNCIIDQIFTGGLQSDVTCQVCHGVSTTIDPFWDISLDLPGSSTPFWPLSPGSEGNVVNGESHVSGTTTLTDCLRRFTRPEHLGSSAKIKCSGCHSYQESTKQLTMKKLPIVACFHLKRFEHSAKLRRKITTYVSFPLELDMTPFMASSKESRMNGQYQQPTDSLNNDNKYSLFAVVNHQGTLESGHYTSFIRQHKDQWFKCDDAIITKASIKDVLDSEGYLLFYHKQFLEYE
UniProt Q9UMX0, whole entry, looked up: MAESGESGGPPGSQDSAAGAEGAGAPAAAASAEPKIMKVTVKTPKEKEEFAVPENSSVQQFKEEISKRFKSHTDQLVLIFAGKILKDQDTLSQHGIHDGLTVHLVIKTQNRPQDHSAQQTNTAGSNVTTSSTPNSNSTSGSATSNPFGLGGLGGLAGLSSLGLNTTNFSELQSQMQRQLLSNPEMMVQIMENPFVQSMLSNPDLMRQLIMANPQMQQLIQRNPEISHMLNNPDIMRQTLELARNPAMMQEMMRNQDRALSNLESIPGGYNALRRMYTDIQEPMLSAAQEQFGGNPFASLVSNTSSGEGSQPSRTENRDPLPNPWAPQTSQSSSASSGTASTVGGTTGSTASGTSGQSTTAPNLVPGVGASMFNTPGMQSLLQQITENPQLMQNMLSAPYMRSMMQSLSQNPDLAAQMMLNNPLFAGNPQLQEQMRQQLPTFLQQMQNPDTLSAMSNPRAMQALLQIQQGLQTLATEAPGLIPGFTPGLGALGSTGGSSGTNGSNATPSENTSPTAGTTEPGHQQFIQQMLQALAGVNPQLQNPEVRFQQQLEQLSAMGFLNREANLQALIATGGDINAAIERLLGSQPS
UniProt Q14146: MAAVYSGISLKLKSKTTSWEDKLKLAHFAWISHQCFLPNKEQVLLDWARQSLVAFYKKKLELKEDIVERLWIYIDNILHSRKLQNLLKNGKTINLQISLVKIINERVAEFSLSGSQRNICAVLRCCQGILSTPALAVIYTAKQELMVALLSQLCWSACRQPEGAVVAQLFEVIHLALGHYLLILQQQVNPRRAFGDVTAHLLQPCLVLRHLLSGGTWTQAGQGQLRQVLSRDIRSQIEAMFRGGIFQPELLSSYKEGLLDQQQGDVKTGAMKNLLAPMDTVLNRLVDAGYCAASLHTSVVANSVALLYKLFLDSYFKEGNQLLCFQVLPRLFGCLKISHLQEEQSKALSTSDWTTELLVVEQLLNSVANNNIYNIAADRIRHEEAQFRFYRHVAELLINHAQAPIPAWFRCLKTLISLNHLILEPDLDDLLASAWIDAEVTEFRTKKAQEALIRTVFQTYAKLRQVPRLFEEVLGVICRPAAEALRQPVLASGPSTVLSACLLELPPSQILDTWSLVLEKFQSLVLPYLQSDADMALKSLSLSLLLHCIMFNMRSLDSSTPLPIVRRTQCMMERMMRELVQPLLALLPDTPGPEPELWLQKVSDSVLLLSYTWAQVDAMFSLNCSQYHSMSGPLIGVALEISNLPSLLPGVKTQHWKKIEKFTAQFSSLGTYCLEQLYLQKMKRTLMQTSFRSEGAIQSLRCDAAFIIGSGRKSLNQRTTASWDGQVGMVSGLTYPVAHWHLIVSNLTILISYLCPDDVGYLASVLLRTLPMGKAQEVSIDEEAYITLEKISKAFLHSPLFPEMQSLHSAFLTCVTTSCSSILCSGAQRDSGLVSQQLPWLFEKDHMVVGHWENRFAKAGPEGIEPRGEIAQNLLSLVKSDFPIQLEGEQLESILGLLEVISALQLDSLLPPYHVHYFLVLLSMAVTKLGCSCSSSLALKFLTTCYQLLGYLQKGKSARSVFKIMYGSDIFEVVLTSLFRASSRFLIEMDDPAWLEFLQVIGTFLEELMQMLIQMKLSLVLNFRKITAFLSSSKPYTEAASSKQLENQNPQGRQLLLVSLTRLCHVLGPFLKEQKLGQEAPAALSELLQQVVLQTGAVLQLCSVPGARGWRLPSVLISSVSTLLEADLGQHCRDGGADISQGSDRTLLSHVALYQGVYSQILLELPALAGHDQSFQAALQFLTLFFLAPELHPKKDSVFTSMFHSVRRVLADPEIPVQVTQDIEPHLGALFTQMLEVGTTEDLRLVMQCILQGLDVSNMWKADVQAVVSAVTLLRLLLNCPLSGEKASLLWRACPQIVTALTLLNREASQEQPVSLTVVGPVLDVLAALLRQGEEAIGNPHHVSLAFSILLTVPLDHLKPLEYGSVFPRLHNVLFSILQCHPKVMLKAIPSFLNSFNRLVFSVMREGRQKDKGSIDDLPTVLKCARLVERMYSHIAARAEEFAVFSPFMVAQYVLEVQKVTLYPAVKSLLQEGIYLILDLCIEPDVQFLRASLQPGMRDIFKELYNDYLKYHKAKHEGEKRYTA

[1] = compound: Cc1nc(Nc2n[nH]c3c2CN(C(=O)N[C@H](CN(C)C)c2ccccc2)C3(C)C)c2sccc2n1
How it was run: as §1

[2] = compound: Cc1ncc(-c2ccnc(Nc3ccc(S(C)(=O)=O)cc3)n2)n1C(C)C
How it was run: as §1

[3] = compound: Cn1cc(-c2ccc3c(c2)CCN3C(=O)Cc2cccc(C(F)(F)F)c2)c2c(N)ncnc21
How it was run: as §1

[4] = compound: Cn1cc(-c2ccc3nnc(C(F)(F)c4ccc5ncccc5c4)n3n2)cn1
How it was run: as §1

tipifarnib = compound: Cn1cncc1[C@@](N)(c1ccc(Cl)cc1)c1ccc2c(c1)c(-c1cccc(Cl)c1)cc(=O)n2C [tipifarnib]
How it was run: as §1

mubritinib = compound: FC(F)(F)c1ccc(/C=C/c2nc(COc3ccc(CCCCn4ccnn4)cc3)co2)cc1 [mubritinib]
How it was run: as §1

[5] = compound: NC(=O)Nc1cc(-c2cccc(F)c2)sc1C(=O)N[C@H]1CCCNC1
How it was run: as §1

[6] = compound: NC1(c2ccc(-c3nc4ccn5c(=O)[nH]nc5c4cc3-c3ccccc3)cc2)CCC1
How it was run: as §1

entinostat = compound: Nc1ccccc1NC(=O)c1ccc(CNC(=O)OCc2cccnc2)cc1 [entinostat]
How it was run: as §1

citarinostat = compound: O=C(CCCCCCNC(=O)c1cnc(N(c2ccccc2)c2ccccc2Cl)nc1)NO [citarinostat]
How it was run: as §1

silmitasertib = compound: O=C(O)c1ccc2c(c1)nc(Nc1cccc(Cl)c1)c1ccncc12 [silmitasertib]
How it was run: as §1

[7] = compound: O=C1NC(=O)C(c2cnc3ccccn23)=C1c1cn2c3c(cc(F)cc13)CN(C(=O)N1CCCCC1)CC2
How it was run: as §1

[8] = compound: c1cc(OCCN2CCCCC2)cc(-c2n[nH]c3ccc(-c4nnc[nH]4)cc23)c1
How it was run: as §1

[9] = compound: NCC(=O)Nc1ccc(-n2nc(C(F)(F)F)cc2-c2ccc3c(ccc4ccccc43)c2)cc1
How it was run: as §1

bafetinib = compound: Cc1ccc(NC(=O)c2ccc(CN3CC[C@H](N(C)C)C3)c(C(F)(F)F)c2)cc1Nc1nccc(-c2cncnc2)n1 [bafetinib]
How it was run: as §1

dasatinib = compound: Cc1nc(Nc2ncc(C(=O)Nc3c(C)cccc3Cl)s2)cc(N2CCN(CCO)CC2)n1 [dasatinib]
How it was run: as §1

[10] = compound: NC(=O)c1cnc(N[C@@H]2CCCC[C@@H]2N)nc1Nc1cccc(-n2nccn2)c1
How it was run: as §1

[11] = compound: Cc1cccc(CC(=O)N2CCc3c2ccc(-c2cn(C)c4ncnc(N)c24)c3F)n1
How it was run: as §1

vorinostat = compound: O=C(CCCCCCC(=O)Nc1ccccc1)NO [vorinostat]
How it was run: as §1

Measured: log2 fold change

ULBP2 (UniProt Q9BZM5)
inactive: nilotinib 0.137 | [1] -0.166 | [2] -0.025 | [3] -0.089 | [4] 0 | tipifarnib -0.151 | mubritinib -0.015 | [5] 0.009 | [6] -0.113 | entinostat -0.027 | citarinostat -0.012 | silmitasertib -0.061 | [7] 0.114 | [8] -0.2

UPP1 (UniProt Q16831)
inactive: tipifarnib 0.064

UTP14C (UniProt Q5TAP6)
inactive: [5] 0.059 | entinostat -0.074 | [7] 0.003

USP46 (UniProt P62068)
inactive: tipifarnib -0.022 | [5] -0.081 | [9] 0.041 | entinostat -0.013 | [7] 0.18

USP13 (UniProt Q92995)
inactive: bafetinib -0.034 | nilotinib -0.028 | [1] -0.007 | dasatinib -0.044 | [2] 0.03 | [3] 0.114 | [4] -0.01 | tipifarnib -0.112 | mubritinib -0.002 | [5] -0.254 | [10] 0.139 | [6] 0.01 | [9] 0.063 | entinostat -0.087 | citarinostat 0.077 | silmitasertib 0.018 | [8] 0.042

UNC5B (UniProt Q8IZJ1)
inactive: dasatinib -0.013 | [9] 0.045 | [7] 0.207

USP11 (UniProt P51784)
inactive: [11] 0.073 | dasatinib 0.131 | [3] -0.174 | [4] -0.128 | tipifarnib 0.115 | mubritinib -0.104 | [5] -0.031 | [6] 0.333 | entinostat 0.065 | vorinostat 0.227 | silmitasertib 0.153 | [7] 0.311

UNC13A (UniProt Q9UPW8)
inactive: bafetinib 0.02 | [5] 0.102 | entinostat 0.023

Copied from above (3 entries):
UTP14C (UniProt Q5TAP6)
inactive: [5] 0.059 | entinostat -0.074 | [7] 0.003

USP46 (UniProt P62068)
inactive: tipifarnib -0.022 | [5] -0.081 | [9] 0.041 | entinostat -0.013 | [7] 0.18

USP13 (UniProt Q92995)
inactive: bafetinib -0.034 | nilotinib -0.028 | [1] -0.007 | dasatinib -0.044 | [2] 0.03 | [3] 0.114 | [4] -0.01 | tipifarnib -0.112 | mubritinib -0.002 | [5] -0.254 | [10] 0.139 | [6] 0.01 | [9] 0.063 | entinostat -0.087 | citarinostat 0.077 | silmitasertib 0.018 | [8] 0.042

Additional records follow:

UQCR11 (UniProt O14957)
inactive: [11] -0.08 | nilotinib -0.115 | [1] 0.094 | [2] 0.024 | [4] 0.002 | mubritinib 0.074 | [10] -0.007 | [6] -0.017 | vorinostat -0.084 | silmitasertib -0.204

VAMP3 (UniProt Q15836)
inactive: bafetinib -0.075 | nilotinib 0.009 | [1] 0.039 | [2] 0.048 | [3] -0.036 | mubritinib -0.003 | [6] -0.059 | silmitasertib 0 | [7] -0.03

UGCG (UniProt Q16739)
inactive: bafetinib -0.003 | dasatinib -0.044 | [3] -0.015 | [4] -0.157 | tipifarnib 0.006 | mubritinib -0.003 | [5] -0.01 | [10] -0.157 | [6] -0.059 | [9] 0.052 | entinostat -0.14 | citarinostat -0.211 | silmitasertib 0.101 | [7] -0.028 | [8] 0.097

UGP2 (UniProt C9JWG0)
inactive: bafetinib -0.145 | nilotinib -0.225 | [1] -0.141 | [2] 0.079 | mubritinib -0.003 | [5] -0.097 | [10] -0.052 | [6] -0.08 | entinostat -0.117 | silmitasertib 0.142

USP1 (UniProt O94782)
inactive: bafetinib -0.122 | nilotinib 0.03 | [1] -0.138 | [2] 0.054 | [3] 0.266 | [4] -0.072 | [5] 0.024 | [10] 0.186 | [9] -0.014 | entinostat 0.281 | citarinostat 0.036 | [7] 0.114 | [8] -0.107

VASN (UniProt Q6EMK4)
inactive: bafetinib -0.081 | [5] -0.069 | [9] 0.102 | entinostat -0.172 | [7] -0.079

USP48 (UniProt Q86UV5)
inactive: bafetinib 0.045 | nilotinib -0.294 | [1] -0.495 | [2] -0.016 | mubritinib 0.117 | [5] -0.077 | [6] -0.242 | entinostat 0.164 | citarinostat -0.024 | silmitasertib 0.185 | [8] 0.076

USP20 (UniProt Q9Y2K6)
inactive: bafetinib -0.023 | nilotinib -0.283 | [1] -0.182 | dasatinib -0.132 | [2] 0.12 | [3] -0.249 | [4] -0.136 | tipifarnib -0.045 | mubritinib 0.042 | [5] -0.11 | [10] 0.005 | [6] -0.106 | [9] 0.214 | entinostat 0.165 | citarinostat 0.229 | silmitasertib 0.154 | [7] -0.011 | [8] 0.161

UCHL1 (UniProt P09936)
inactive: [11] -0.017 | vorinostat 0.15

UCHL5 isoform 3 (UniProt Q9Y5K5)
inactive: bafetinib 0.151 | nilotinib -0.104 | [1] 0.076 | [2] -0.08 | [3] -0.052 | [4] -0.064 | tipifarnib -0.085 | mubritinib 0.049 | [5] 0.037 | [10] 0.156 | [6] -0.277 | [9] 0.05 | entinostat 0.098 | citarinostat 0.113 | silmitasertib -0.002 | [7] -0.054 | [8] -0.028

UXS1 isoform 2 (UniProt Q8NBZ7)
inactive: bafetinib 0.005 | nilotinib 0.003 | [1] 0.055 | dasatinib 0.022 | [2] -0.045 | [3] -0.101 | [4] -0.109 | tipifarnib 0.06 | mubritinib 0.003 | [5] 0.035 | [10] 0.114 | [6] 0 | [9] 0.002 | entinostat -0.027 | citarinostat -0.043 | silmitasertib -0.013 | [7] 0.128 | [8] -0.199

USP32 (UniProt Q8NFA0)
inactive: [11] 0.011 | nilotinib -0.004 | [1] 0.081 | dasatinib -0.046 | [2] 0.053 | [3] -0.074 | [4] 0.012 | tipifarnib -0.336 | [5] -0.025 | [10] -0.061 | entinostat -0.066 | vorinostat 0.14 | [7] -0.026

USP27X (UniProt A6NNY8)
inactive: dasatinib 0.03 | [3] -0.353 | [4] -0.168 | [10] -0.253 | [7] -0.026

VCPIP1 (UniProt Q96JH7)
inactive: [11] -0.241 | [5] 0.466 | [9] 0.06 | entinostat 0.108 | vorinostat -0.132 | [7] 0.259

UPF3A (UniProt Q9H1J1)
inactive: [5] 0.135 | entinostat -0.339 | citarinostat -0.154 | [7] 0.091 | [8] -0.106

USP6NL isoform 2 (UniProt Q92738)
inactive: nilotinib 0.025 | [1] -0.023 | dasatinib -0.007 | [2] -0.068 | [3] -0.278 | [4] -0.126 | tipifarnib 0.032 | [5] -0.039 | [10] 0.078 | [9] -0.026 | entinostat -0.09 | citarinostat 0.097 | [7] 0.077 | [8] 0.051

USP22 (UniProt Q9UPT9)
inactive: bafetinib -0.035 | nilotinib -0.055 | [1] 0.081 | dasatinib -0.074 | [2] -0.095 | [3] 0.171 | tipifarnib -0.187 | mubritinib 0.098 | [5] -0.059 | [10] -0.121 | [6] -0.075 | [9] -0.103 | entinostat -0.01 | citarinostat 0.042 | silmitasertib -0.061 | [7] -0.124 | [8] -0.022

USF3 (UniProt Q68DE3)
inactive: bafetinib 0.055 | [4] -0.096 | tipifarnib 0.28 | mubritinib 0.155 | [5] -0.193 | [6] -0.227 | [9] -0.243 | entinostat -0.068 | citarinostat -0.242 | silmitasertib 0.186 | [7] -0.239 | [8] -0.28

USB1 (UniProt Q9BQ65)
inactive: [11] 0.143 | [3] 0.031 | tipifarnib 0.012 | [9] -0.006 | vorinostat 0.095

UBQLN1 isoform 2 (UniProt Q9UMX0)
inactive: dasatinib -0.387 | mubritinib -0.08 | [6] 0.13 | silmitasertib -0.124

VAV1 (UniProt P15498)
inactive: [11] -0.02 | [3] -0.309 | [4] -0.108 | mubritinib 0.14 | [10] -0.153 | [6] -0.249 | [9] -0.009 | vorinostat 0.191 | silmitasertib 0.039 | [7] 0.077

USP4 (UniProt Q13107)
inactive: dasatinib -0.002

UTP20 (UniProt O75691)
inactive: tipifarnib 0.089 | [7] 0.009

UBQLN3 (UniProt Q9H347)
inactive: [11] -0.195 | nilotinib -0.438 | [1] -0.037 | dasatinib 0.183 | [2] 0.472 | [3] 0.132 | [4] 0.043 | tipifarnib 0.039 | mubritinib -0.086 | [10] -0.09 | [6] -0.293 | [9] -0.086 | vorinostat -0.067 | citarinostat 0.028 | silmitasertib -0.169 | [7] 0.016 | [8] -0.033

UBR3 isoform 4 (UniProt Q6ZT12)
inactive: bafetinib -0.042 | dasatinib -0.213 | [3] 0.021 | tipifarnib 0.054 | [5] -0.119 | [9] -0.009 | entinostat 0.21 | citarinostat 0.092 | [7] -0.037 | [8] -0.351

URB2 (UniProt Q14146)
inactive: bafetinib 0.062 | nilotinib -0.186 | [1] 0.04 | [2] 0.255 | [3] -0.087 | [10] -0.025

ULBP1 (UniProt Q9BZM6)
inactive: dasatinib 0.083 | [3] 0.068 | [4] -0.11 | tipifarnib -0.097 | mubritinib 0.004 | [5] -0.045 | [10] 0.026 | [6] -0.227 | [9] -0.039 | entinostat 0.099 | silmitasertib 0.013 | [7] -0.188

UTP23 (UniProt Q9BRU9)
inactive: nilotinib -0.095 | [1] -0.075 | dasatinib -0.072 | [2] 0.218 | [3] -0.163

UBP1 (UniProt Q9NZI7)
inactive: bafetinib -0.014 | nilotinib 0.041 | [1] -0.045 | dasatinib -0.265 | [2] -0.003 | [3] 0.131 | [4] -0.014 | mubritinib 0.037 | [5] 0.035 | [6] -0.071 | [9] -0.054 | entinostat -0.074 | silmitasertib 0.016 | [7] 0.33

UBN2 (UniProt Q6ZU65)
inactive: nilotinib -0.027 | [1] 0.003 | [2] 0.128 | [3] -0.007 | [9] -0.048
